{"sequences": {"note": "Protein sequences, listed by entry. Tags and fused reporters are not part of them.", "UniProt Q15629": "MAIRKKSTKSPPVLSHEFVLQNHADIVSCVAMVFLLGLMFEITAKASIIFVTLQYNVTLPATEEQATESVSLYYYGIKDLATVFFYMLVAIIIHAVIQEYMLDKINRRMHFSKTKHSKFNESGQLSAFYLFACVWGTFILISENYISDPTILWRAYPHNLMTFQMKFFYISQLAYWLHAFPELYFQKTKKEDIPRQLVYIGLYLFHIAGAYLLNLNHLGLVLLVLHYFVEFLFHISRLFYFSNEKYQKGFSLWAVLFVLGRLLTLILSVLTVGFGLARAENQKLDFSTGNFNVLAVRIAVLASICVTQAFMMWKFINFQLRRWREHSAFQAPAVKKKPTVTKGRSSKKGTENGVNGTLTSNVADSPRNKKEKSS"}, "source": "paper PMC12390733", "biological_target": "His-tagged SARS-CoV-2 NSP3 (SARS-CoV-2) (UniProt P0DTD1)", "test": "affinity purification with mass spectrometry", "note": "Results are given in words; binding and its absence hold for the method and conditions named. Binding seen in cells or lysates may run through a third protein. These calls come from enrichment with a bait or labelling near it, and not all partners need be listed.", "data": [{"substance": "TRAM1 (from UniProt Q15629 1-374)", "values": [{"measurement": "binding", "value": "binds"}]}]}
